Results from the supplement of paper PMC12889115.
This is one part of the list. Values are raw readings; no control value is given beside them.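 In the initial screen, polymyxin B was used at a concentration that permeabilizes Salmonella's outer membrane but not its inner membrane. Maximum growth was set by DMSO wells with or without polymyxin B. Since plates varied, data were ranked per plate, and compounds giving the lowest OD600 advanced as hits.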

Tested on: Salmonella enterica serovar Typhimurium SL1344
Assay: bacterial growth OD600 after 18 h with compound and polymyxin B; higher = more bacterial growth (less inhibition)
Conditions: 50 µM, Mueller-Hinton broth

Row | Structure (SMILES) | bacterial growth OD600 (polymyxin B 0.75 µg/mL) | bacterial growth OD600 (polymyxin B 1 µg/mL)
1 | OC(Cc1ccccc1)c1ccc2c(c1)CN(CC#Cc1ccccc1)CCO2 (stereo not drawn) | 0.613 | –
2 | C=Cc1ccc(C(=O)N2CCC(Cc3ccc(OC)cc3)(C(=O)OCC)CC2)cc1 | – | 0.486
3 | O=C(COc1ccc(N2CCN(c3ccccn3)CC2)nn1)NCCCn1ccc2ccccc21 | 0.757 | –
4 | COC(=O)[C@@H]1CCCN1C(=O)Cc1ccc(N2CCC(NCCSc3nncn3C)CC2)cc1 | 0.883 | –
5 | COc1ccc(CC2(CCC(=O)N3CCCC3c3nc4cc(F)ccc4[nH]3)CCC(=O)N2)c(F)c1 (stereo not drawn) | 0.865 | –
6 | CCC1CN(Cc2cccnc2)Cc2cc(OC)ccc2O1 (stereo not drawn) | 0.922 | –
7 | COc1ccc2[nH]c(CCN(C)C(=O)CC3(c4ccccc4OC)CC(=O)N(C)C3=O)nc2c1 (stereo not drawn) | 0.984 | –
8 | COc1cccc(-c2cc3c(c(OC)c2)OCCN(CC2CCCCC2)C3)n1 | 0.884 | –
9 | CN(Cc1n[nH]c2c1CCCCC2)C(=O)CC1(c2ccc(-c3ccccc3)cc2)CC(=O)N(C)C1=O (stereo not drawn) | -0.002 | –
10 | CC(C)Cc1cc(C(=O)NC2CCCN(c3ncccn3)C2)[nH]n1 (stereo not drawn) | – | 0.87
11 | O=C(NC1CC1)C1CCCN(C2CCN(CC3CCCC3)CC2)C1 (stereo not drawn) | 0.789 | –
12 | Cc1c(CNCc2cccnc2Oc2ccccc2F)cnn1C | 0.835 | –
13 | COCc1nc2cc(NC(=O)Cc3ccccc3)cc(C(=O)NCCCOc3cccnc3)c2n1C | 0.807 | –
14 | CC(Cc1cccs1)NC(=O)C1CC(Cc2cccc(Cl)c2)=NO1 (stereo not drawn) | 0.82 | –
15 | CCC1(CCC(=O)N(C)Cc2ccc(Oc3ccccc3)cc2)CCC(=O)N1 (stereo not drawn) | 0.843 | –
16 | O=C(CCN1CCCO1)N1CCCC(CCc2ccccc2F)C1 (stereo not drawn) | 0.768 | –
17 | Cc1noc(C)c1CCCNC(=O)c1ccc(N2CCCC(O)C2)nc1 (stereo not drawn) | 0.798 | –

Reprinted at random: 3 compounds from above.
Row | Structure (SMILES) | bacterial growth OD600 (polymyxin B 0.75 µg/mL) | bacterial growth OD600 (polymyxin B 1 µg/mL)
9 | CN(Cc1n[nH]c2c1CCCCC2)C(=O)CC1(c2ccc(-c3ccccc3)cc2)CC(=O)N(C)C1=O (stereo not drawn) | -0.002 | –
7 | COc1ccc2[nH]c(CCN(C)C(=O)CC3(c4ccccc4OC)CC(=O)N(C)C3=O)nc2c1 (stereo not drawn) | 0.984 | –
13 | COCc1nc2cc(NC(=O)Cc3ccccc3)cc(C(=O)NCCCOc3cccnc3)c2n1C | 0.807 | –

Later entries.

Row | Structure (SMILES) | bacterial growth OD600 (polymyxin B 0.75 µg/mL) | bacterial growth OD600 (polymyxin B 1 µg/mL)
18 | CCN1CCC(C(=O)N2CCCC(CCc3ccccc3C)C2)CC1 (stereo not drawn) | 0.82 | –
19 | O=C(Nc1ccc(-c2cccc(F)c2)cc1)C1CCCN(Cc2nccs2)C1 (stereo not drawn) | 0.013 | –
20 | CN(Cc1cc(-c2ccccc2)[nH]n1)C(=O)c1cn(Cc2ccccc2Cl)nn1 | – | 0.01
21 | CCOC(=O)CNC(=O)NC1CC(=O)N(C2CCCCCC2)C1 (stereo not drawn) | – | 0.979
22 | COCCCN1C(=O)CC(CC(=O)N2CC3CCCC2C3)(c2ccccc2OC)C1=O (stereo not drawn) | 0.834 | –
23 | O=C(NCc1cccnc1-n1cnc2ccccc21)c1ccoc1 | – | 0.904
24 | CN1CCCC(CCc2ccccc2F)C1 (stereo not drawn) | 0.805 | –
25 | C=CCCC(=O)NCC1Cc2cccc(-c3ncccn3)c2O1 (stereo not drawn) | 0.897 | –
26 | COc1ccc(NC(=O)CCC2CCCN(C(=O)CN3CCCC3=O)C2)cc1Cl (stereo not drawn) | – | 1.1
27 | c1cc(CN2CCc3[nH]nc(-c4ccc5c(c4)OCO5)c3C2)cs1 | 0.779 | –
28 | Cc1c(C(C)NC(=O)c2coc(COc3cccc(F)c3)n2)cnn1C (stereo not drawn) | – | 0.965
29 | O=C1OCCCN1CCNc1ccc(-c2nc(-c3ccccc3F)no2)cn1 | – | 0.678
30 | Cc1ccccc1CCC1CCCN(C(=O)c2ocnc2C)C1 (stereo not drawn) | 0.501 | –
31 | CN(C(=O)c1ccco1)C(Cc1ccccc1Cl)C1CCN(Cc2ccc3c(c2)CCO3)CC1 (stereo not drawn) | 0.799 | –
32 | CCN(Cc1nccn1C)C(=O)c1ccc(NCc2ccccc2)nc1 | 0.964 | –
33 | O=C(NCC[C@@H]1C[C@@H]2C=C[C@H]1C2)c1cccc(OC2CCN(C(=O)C3CC3)CC2)c1 | – | 0.018
